Assay results published in article PMC9210727.
No constants are given. Whether binding was seen depends on the method and setting. In cells and extracts the contact can be indirect. Some binding calls cover weakened binding; strength is not graded here.

Molecular target: T1, TIGIT (human (endogenous in CD8+ T cells from PBMCs)) (UniProt Q495A1)
T1 sequence: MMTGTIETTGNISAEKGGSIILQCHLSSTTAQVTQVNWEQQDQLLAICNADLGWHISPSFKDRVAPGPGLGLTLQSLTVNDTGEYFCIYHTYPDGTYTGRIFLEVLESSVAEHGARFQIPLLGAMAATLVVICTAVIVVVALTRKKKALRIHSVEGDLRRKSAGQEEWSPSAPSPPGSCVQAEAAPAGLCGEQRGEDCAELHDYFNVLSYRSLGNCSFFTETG
Assay: co-IP; lysate of CD8+ T cells cultured with Fc-CD155; antibody incubated with the supernatant at 4 °C overnight, Protein A/G Sepharose beads 6 h, three washes, western blot

binding: binds
B1: SH2-containing inositol phosphatase 1 (SHIP-1) (enzyme, UniProt Q92835 1-1189)
chain: MVPCWNHGNITRSKAEELLSRTGKDGSFLVRASESISRAYALCVLYRNCVYTYRILPNEDDKFTVQASEGVSMRFFTKLDQLIEFYKKENMGLVTHLQYPVPLEEEDTGDDPEEDTVESVVSPPELPPRNIPLTASSCEAKEVPFSNENPRATETSRPSLSETLFQRLQSMDTSGLPEEHLKAIQDYLSTQLAQDSEFVKTGSSSLPHLKKLTTLLCKELYGEVIRTLPSLESLQRLFDQQLSPGLRPRPQVPGEANPINMVSKLSQLTSLLSSIEDKVKALLHEGPESPHRPSLIPPVTFEVKAESLGIPQKMQLKVDVESGKLIIKKSKDGSEDKFYSHKKILQLIKSQKFLNKLVILVETEKEKILRKEYVFADSKKREGFCQLLQQMKNKHSEQPEPDMITIFIGTWNMGNAPPPKKITSWFLSKGQGKTRDDSADYIPHDIYVIGTQEDPLSEKEWLEILKHSLQEITSVTFKTVAIHTLWNIRIVVLAKPEHENRISHICTDNVKTGIANTLGNKGAVGVSFMFNGTSLGFVNSHLTSGSEKKLRRNQNYMNILRFLALGDKKLSPFNITHRFTHLFWFGDLNYRVDLPTWEAETIIQKIKQQQYADLLSHDQLLTERREQKVFLHFEEEEITFAPTYRFERLTRDKYAYTKQKATGMKYNLPSWCDRVLWKSYPLVHVVCQSYGSTSDIMTSDHSPVFATFEAGVTSQFVSKNGPGTVDSQGQIEFLRCYATLKTKSQTKFYLEFHSSCLESFVKSQEGENEEGSEGELVVKFGETLPKLKPIISDPEYLLDQHILISIKSSDSDESYGEGCIALRLEATETQLPIYTPLTHHGELTGHFQGEIKLQTSQGKTREKLYDFVKTERDESSGPKTLKSLTSHDPMKQWEVTSRAPPCSGSSITEIINPNYMGVGPFGPPMPLHVKQTLSPDQQPTAWSYDQPPKDSPLGPCRGESPPTPPGQPPISPKKFLPSTANRGLPPRTQESRPSDLGKNAGDTLPQEDLPLTKPEMFENPLYGSLSSFPKPAPRKDQESPKMPRKEPPPCPEPGILSPSIVLTKAQEADRGEGPGKQVPAPRLRSFTCSSSAEGRAAGGDKSQGKPKTPVSSQAPVPAKRPIKPSRSEINQQTPPTPTPRPPLPVKSPAVLHLQHSKGRDYRDNTELPHHGKHRPEEGPPGPLGRTAMQ
